From patent US10717731B2, “Nitrogen-containing aromatic heterocyclic compound” (MITSUBISHI TANABE PHARMA CORPORATION, priority 2015, dated 2020)
pIC50: −log10 of the molar value. The match of structure and compound is tentative.

Amino acid sequences for entries named in this document (tags omitted). Residues count along the entry.
UniProt P19099, 25-503 limits assumed: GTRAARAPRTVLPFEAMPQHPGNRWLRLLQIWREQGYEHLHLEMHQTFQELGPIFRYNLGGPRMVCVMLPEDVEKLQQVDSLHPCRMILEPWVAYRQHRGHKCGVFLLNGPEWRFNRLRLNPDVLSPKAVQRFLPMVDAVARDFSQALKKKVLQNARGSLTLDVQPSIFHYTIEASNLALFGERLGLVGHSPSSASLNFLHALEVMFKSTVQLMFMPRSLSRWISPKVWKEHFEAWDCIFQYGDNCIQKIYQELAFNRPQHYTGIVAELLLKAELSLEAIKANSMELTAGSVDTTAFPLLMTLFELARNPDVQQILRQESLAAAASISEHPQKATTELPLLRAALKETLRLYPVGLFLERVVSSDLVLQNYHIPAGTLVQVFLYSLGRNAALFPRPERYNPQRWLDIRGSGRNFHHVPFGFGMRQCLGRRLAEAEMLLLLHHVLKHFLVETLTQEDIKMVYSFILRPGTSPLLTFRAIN

Each molecule was assayed against human CYP11B2 (Homo sapiens, UniProt P19099) (assay: Inhibitory effect on hCYP11B2: aldosterone production in mitochondrial fraction of V79 cells stably expressing human CYP11B2, HTRF). Settings: read-out: hCyp11B2 IC50; 0.5 μmol/L deoxycorticosterone, 150 μmol/L NADPH, 1.5-2 hours at room temperature.
Format: biochemical
Method: Experimental Example 1 (Inhibitory Effect on hCYP11B2)
The pcDNA3.1-human CYP11B2 plasmid was transfected into a Chinese hamster lung fibroblast V79 cell line to produce a cell line stably expressing human CYP11B2 gene.
The cells were cultured and grown in the Dulbecco's modified Eagle's/Ham's medium supplemented with 10% fetal bovine serum and 1% G418 disulfate solution under the environment of 37° C., 95% air, and 5% CO2, and the grown cells were harvested.
Then, the cells were fractionated to obtain mitochondria by reference to a method described in Chabre et al. JCE & M 85 (11) 4060-68, 2000. In particular, the cells suspended in a 5 mmol/L Tris-HCl buffer (pH 7.4) containing 250 mmol/L sucrose were homogenized in a Teflon (Registered Trademark) Potter Elvehjem homogenizer, and then the suspension was centrifuged (800×g, 15 min.). The supernatant was separated and again centrifuged (10000×g, 15 min.) to obtain a pellet (mitochondrial fraction).
The mitochondrial fraction diluted with a buffer containing 10 mmol/L KH2PO4, 10 mmol/L Tris, 20 mmol/L KCl, 25 mmol/L sucrose, 5 mmol/L MgCl2, and 0.05% bovine serum albumin was dispensed to a 96-well plate. 0.5 μmol/L Deoxycorticosterone, 150 μmol/L NADPH and a compound of each concentration were added to each well, and incubated for 1.5-2 hours at room temperature to produce aldosterone. An amount of the produced aldosterone in the incubated solution was determined by using HTRF (Homogeneous Time Resolved Fluorescence) method.
IC50 (nmol/L) was calculated by analyzing the aldosterone production inhibition rate (%) of each concentration of compounds by non-linear regression to a logistic curve.

**Q.** How did the pIC50 turn out when C[C@H](O)CNC(=O)CN1CCN(c2cncc(-c3ccc4cnn(C)c4c3)n2)CC1 [Example 18] was run?
**A.** 7.82

**Q.** How did the pIC50 turn out when Cc1ccc(-c2cncc(N3CCN(CC(=O)Nc4cnn(CC(=O)N(C)C)c4)CC3)n2)cc1 was run?
**A.** 8.05

**Q.** With CC(C)NC(=O)CN1CCN(c2cncc(-c3ccc(C(F)(F)F)nc3)c2)CC1 as the molecule, how does the pIC50 read?
**A.** 7.00

**Q.** O=C(CN1CCN(c2cncc(-c3ccc(Cl)cc3)c2)CC1)N[C@H]1CC[C@@H](N2CCC(O)CC2)CC1 was tested. Which pIC50 did it give?
**A.** 8.06

**Q.** With CN1C2CCC1CC(NC(=O)CN1CCN(c3cncc(-c4ccc(Cl)cc4)c3)CC1)C2 (stereo not shown) as the molecule, how does the pIC50 read?
**A.** 8.48

**Q.** How did the pIC50 turn out when CNC(=O)Cn1cc(NC(=O)CN2CCN(c3cncc(-c4ccc(Cl)cc4)c3)CC2)cn1 was run?
**A.** 8.52

**Q.** With CC(=O)N[C@H]1CC[C@@H](NC(=O)CN2CCN(c3cncc(-c4ccc(C)cc4)c3)CC2)CC1 as the molecule, how does the pIC50 read?
**A.** 8.24
